In PubChem BioAssay AID330 (DTP/NCI, 2004):
The list does not hold the whole screen: it gathers tests that were run many times, whatever their T/C, doses with no T/C, and many T/C values between a quarter and a half above the control. Other doses and runs of a compound stand elsewhere. T/C gives the treated animals as a percentage of the vehicle group. Some entries give survivors of the animals treated and no T/C: the source files T/C as zero there, which appears to mark a toxic dose or a test without result, not a measured value. Some survivor counts are full or nearly so, which does not show that the dose was tolerated: survival well below the control is almost never listed, so the zero probably covers shortened survival too. Counts of survivors are from the toxicity check (mostly the fifth day) where no day follows; animals may have died later. Schedules are NCI's codes, taken here to give the interval after Q, in days (D) or hours (H), and the number of doses after X. Some entries were tested several times; the values are given in rising order. Where survival is the endpoint, the PubChem record calls one and a half times the control and up active, and a quarter to a half above the control has no call in these data; cut-offs in other NCI protocols can differ.

System: P388 leukemia ip, CD2F1 mice, survival T/C
Assay: NCI In Vivo Anticancer Drug Screen. Data for tumor model P388 Leukemia (intraperitoneal) in CD2F1 (CDF1) mice
Conditions: T/C endpoint: median survival time, higher T/C = longer survival
[1] = dose: 100.0 mg/kg/injection, schedule: Q01DX009 (ip), vehicle: saline with Tween-80
[2] = dose: 200.0 mg/kg/injection, schedule: Q01DX009 (ip), vehicle: saline with Tween-80
[3] = dose: 100.0 mg/kg/injection, schedule: Q01DX005 (ip), vehicle: saline with Tween-80
[4] = dose: 200.0 mg/kg/injection, schedule: Q01DX005 (ip), vehicle: saline with Tween-80

With `CC1(C)CCC(C)(C)NC(=S)N1` the survivor count (dose: 50.0 mg/kg/injection, schedule: Q01DX009 (ip), vehicle: saline with Tween-80) was 0 of 6, the survivor count [1] was 0 of 6 and the survivor count [2] was 0 of 6.
`O=c1cccc2c3ccccc3ccn12` was tested, and the survivor count (dose: 240.0 mg/kg/injection, schedule: Q01DX005 (ip), vehicle: Klucel (hydroxypropylcellulose) (HPC)) was 5 of 6.
`c1ccc(CN2COCO[C@H]3CCC[C@@H]32)cc1` was tested, and the survivor count (dose: 200.0 mg/kg/injection, schedule: Q01DX005 (ip), vehicle: Klucel (hydroxypropylcellulose) (HPC)) was 0 of 6.
With `CCCCCN(CCCCC)CCC(O)c1cccc2ccccc12` (centres undefined) the survivor count [3] was 2 of 5 and the survivor count [4] was 0 of 5.
For `C[N+](C)(Cc1ccccc1)[N-]C(=N)c1ccccc1`, the survivor count (dose: 200.0 mg/kg/injection, schedule: Q04DX003 (ip), vehicle: Klucel (hydroxypropylcellulose) (HPC)) was 0 of 6 and the survivor count (dose: 400.0 mg/kg/injection, schedule: Q04DX003 (ip), vehicle: Klucel (hydroxypropylcellulose) (HPC)) was 0 of 6.
In the case of `O=C1CCc2cc([N+](=O)[O-])cc3c2N1CCC3`, the survivor count (dose: 100.0 mg/kg/injection, schedule: Q01DX005 (ip), vehicle: Klucel (hydroxypropylcellulose) (HPC)) was 5 of 5.
In the case of `Cc1cc([N+](=O)[O-])ccc1N=Nc1ccc(O)c(C(=O)O)c1`, the survivor count [4] was 0 of 5.
With `Cc1cc(C(=O)NN)no1` the survivor count (dose: 200.0 mg/kg/injection, schedule: Q01DX009 (ip), vehicle: saline) was 0 of 6.
For `O=c1cc(CCl)[nH]nc1CCl`, the T/C (dose: 22.0 mg/kg/injection, schedule: Q04DX003 (ip), vehicle: saline with Tween-80) was 144 % of control.
`CC1(c2cccc(N(CCCl)CCCl)c2)NC(=O)NC1=O` (centres undefined) was tested, and the survivor count [1] was 5 of 6 and the survivor count [2] was 2 of 6.
With `O=C(Nc1nc2c(Cl)cccc2s1)C(F)(F)C(F)(F)C(F)(F)F` (tested in a mixture with another compound) the survivor count [2] was 0 of 6.
`C[C@@H]1CN1C1=CC(=O)C(N2C[C@H]2C)=CC1=O` was tested, and the T/C (dose: 0.15 mg/kg/injection, schedule: Q01DX009 (ip), vehicle: gum acacia) was 135 % of control, the T/C (dose: 0.62 mg/kg/injection, schedule: Q01DX009 (ip), vehicle: gum acacia) was 137 % of control and the T/C (dose: 1.25 mg/kg/injection, schedule: Q01DX009 (ip), vehicle: gum acacia) was 140 % of control. The survivor count (dose: 20.0 mg/kg/injection, schedule: Q01DX009 (ip), vehicle: gum acacia) was 5 of 6.
With `CCCCCCCCCCCCCCCC(=O)N(CCCCN(C)C)CCCCN(C)C` the survivor count (dose: 2.0 mg/kg/injection, schedule: Q01DX009 (ip), vehicle: saline) was 2 of 6, the survivor count (dose: 4.0 mg/kg/injection, schedule: Q01DX009 (ip), vehicle: saline) was 0 of 6 and the survivor count (dose: 8.0 mg/kg/injection, schedule: Q01DX009 (ip), vehicle: saline) was 0 of 6.
With `O=C1C(Cl)=C(Cl)C(Cl)(Cl)C(Cl)=C1Cl` the survivor count (dose: 100.0 mg/kg/injection, schedule: Q01DX001 (ip), vehicle: Klucel (hydroxypropylcellulose) (HPC)) was 3 of 6, the survivor count (dose: 200.0 mg/kg/injection, schedule: Q01DX001 (ip), vehicle: Klucel (hydroxypropylcellulose) (HPC)) was 0 of 6 and the survivor count (dose: 400.0 mg/kg/injection, schedule: Q01DX001 (ip), vehicle: Klucel (hydroxypropylcellulose) (HPC)) was 0 of 6.
`Cc1nc2c([N+](=O)[O-])c(N3CCN(C)CC3)c([N+](=O)[O-])cc2[nH]1` was tested, and the survivor count (dose: 100.0 mg/kg/injection, schedule: Q04DX003 (ip), vehicle: saline with Tween-80) was 4 of 6, the survivor count (dose: 200.0 mg/kg/injection, schedule: Q04DX003 (ip), vehicle: saline with Tween-80) was 0 of 6 and 2 of 6 and the survivor count (dose: 400.0 mg/kg/injection, schedule: Q04DX003 (ip), vehicle: saline with Tween-80) was 0 of 6.
`CCNC(CC)CCCNc1cc(OC)cc2cccnc12` (centres undefined) was tested, and the survivor count (dose: 50.0 mg/kg/injection, schedule: Q01DX005 (ip), vehicle: saline with Tween-80) was 0 of 5, the survivor count [3] was 0 of 5 and the survivor count [4] was 0 of 5.
In the case of `C=C1C(=O)OC2C=CCCCC12` (centres undefined), the survivor count (dose: 200.0 mg/kg/injection, schedule: Q01DX001 (ip), vehicle: saline with Tween-80) was 0 of 6 and 3 of 6 and the survivor count (dose: 400.0 mg/kg/injection, schedule: Q01DX001 (ip), vehicle: saline with Tween-80) was 0 of 6.
